Consider one molecule from paper doi:10.1101/2023.03.17.532973 (bioRxiv, 2023).

For this assay, the target named is human cytosolic serine hydroxymethyltransferase (SHMT1), wild type (human) (UniProt P34896). Description: cryo-EM structure.

Results are given in words; binding and its absence hold for the method and conditions named. Some binding calls cover weakened binding; strength is not graded here.

B1: human cytosolic serine hydroxymethyltransferase (SHMT1), wild type (enzyme)
chain: DADLWSSHDKMLAQPLKDSDVEVYNIIKKESNRQRVGLELIASENFASRAVLEALGSCLNNKYSEGYPGQRYYGGTEFIDELETLCQKRALQAYKLDPQCWGVNVQPYSGSPANFAVYTALVEPHGRIMGLDLPDGGHLTHGFMTDKKKISATSIFFESMPYKVNPDTGYINYDQLEENARLFHPKLIIAGTSCYSRNLEYARLRKIADENGAYLMADMAHISGLVAAGVVPSPFEHCHVVTTTTHKTLRGCRAGMIFYRKGVKSVDPKTGKEILYNLESLINSAVFPGLQGGPHNHAIAGVAVALKQAMTLEFKVYQHQVVANCRALSEALTELGYKIVTGGSDNHLILVDLRSKGTDGGRAEKVLEACSIACNKNTCPGDRSALRPSGLRLGTPALTSRGLLEKDFQKVAHFIHRGIELTLQIQSDTGVRATLKEFKERLAGDKYQAAVQALREEVESFASLFPLPGL
As for B1, the binding entry is “binds”.
